From paper PMC10377175

The chains behind the UniProt entries cited, without tags or fusion partners. Residues count along the entry.
UniProt P02769, 25-607: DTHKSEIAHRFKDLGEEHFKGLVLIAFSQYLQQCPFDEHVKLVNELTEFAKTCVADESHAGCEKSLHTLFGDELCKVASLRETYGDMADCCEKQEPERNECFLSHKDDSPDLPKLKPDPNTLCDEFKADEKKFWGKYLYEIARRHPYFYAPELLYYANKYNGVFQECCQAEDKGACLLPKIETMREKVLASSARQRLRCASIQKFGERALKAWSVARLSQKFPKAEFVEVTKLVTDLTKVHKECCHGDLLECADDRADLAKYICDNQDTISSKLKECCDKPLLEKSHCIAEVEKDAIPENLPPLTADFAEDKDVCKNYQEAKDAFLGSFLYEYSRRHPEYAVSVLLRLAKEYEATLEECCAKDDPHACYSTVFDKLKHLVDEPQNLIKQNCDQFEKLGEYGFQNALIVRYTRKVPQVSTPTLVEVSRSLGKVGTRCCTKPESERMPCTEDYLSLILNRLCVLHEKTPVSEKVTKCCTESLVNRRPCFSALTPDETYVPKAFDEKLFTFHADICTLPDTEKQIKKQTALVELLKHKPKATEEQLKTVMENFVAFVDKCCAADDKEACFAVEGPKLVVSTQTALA

Legend:
[1] = tested on: TATA-binding protein (TBP); assay: electrochemical (E-DNA, square wave voltammetry); conditions: 200 nM TBP, current change significantly less than with ENOX2 (p<0.0001); internal methylene blue on thymine T21 (printed after ...CATCTTT); 5' disulfide linker reduced to thiol; E-DNA: PBS pH 7.4 (137 mM NaCl, 10 mM Na2HPO4, 1.8 mM KH2PO4, 2.7 mM KCl, 1 mM MgCl2), 10 min equilibration; temperature not stated; recombinant protein; label: methylene blue, 5' thiol on gold electrode; single-stranded DNA
[2] = molecular target: bovine serum albumin (BSA) (Bos taurus) (UniProt P02769); assay: electrochemical (E-DNA, square wave voltammetry); conditions: 500 nM BSA, current change significantly less than with ENOX2 (p<0.0001); internal methylene blue on thymine T21 (printed after ...CATCTTT); 5' disulfide linker reduced to thiol; E-DNA: PBS pH 7.4 (137 mM NaCl, 10 mM Na2HPO4, 1.8 mM KH2PO4, 2.7 mM KCl, 1 mM MgCl2), 10 min equilibration; temperature not stated; label: methylene blue, 5' thiol on gold electrode; single-stranded DNA

## TAAAGATCCCTGTTCATCTTTTCTCGAGTGTTCTTTAGAACAATGAATCTTT [ENOX2 E-DNA biosensor aptamer]
[1]
  binding result: binds more weakly
[2]
  binding result: binds more weakly

The exact form of at least one protein or probe is not confirmed. The comparison behind a weaker result is the experiment's own reference, which may not be listed here.
